The other results are listed elsewhere or left out.
Columns and labels:
Experiment in all cases: glycan array binding signal (z-score within array); higher = stronger binding
Settings in all cases: glycan notation: IUPAC condensed, linker removed
[1] = biological target: Neu5Ac(a2-6)Gal(b1-4)GlcNAc(b1-3)GalNAc
Summary of the method: (§1)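 Negative Z-scores can be read as non-binding. The Z-score is calculated within each array and then averaged across arrays of one protein sequence at different concentrations or buffers and across linkers. Arrays, 3228 in all, were curated from the Consortium for Functional Glycomics database and kept only where the protein sequence was available.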

[2] = biological target: Neu5Ac(a2-6)Gal(b1-4)GlcNAc6S
Summary of the method: as §1

Neu5Ac(a2-6)GalNAc = biological target: Neu5Ac(a2-6)GalNAc
Summary of the method: as §1

[3] = biological target: Neu5Ac(a2-6)GalNAc(b1-4)GlcNAc
Summary of the method: as §1

[4] = biological target: Neu5Ac(a2-6)GlcNAc(b1-4)GlcNAc
Summary of the method: as §1

[5] = biological target: Neu5Ac(a2-6)GlcNAc(b1-4)GlcNAc(b1-4)GlcNAc
Summary of the method: as §1

Neu5Ac(a2-8)Neu5Ac = biological target: Neu5Ac(a2-8)Neu5Ac
Summary of the method: as §1

[6] = biological target: Neu5Ac(a2-8)Neu5Ac(a2-3)Gal(b1-4)Glc
Summary of the method: as §1

[7] = biological target: Neu5Ac(a2-8)Neu5Ac(a2-3)[Gal(b1-3)GalNAc(b1-4)]Gal(b1-4)Glc
Summary of the method: as §1

[8] = biological target: Neu5Ac(a2-8)Neu5Ac(a2-3)[GalNAc(b1-4)]Gal(b1-4)Glc
Summary of the method: as §1

[9] = biological target: Neu5Ac(a2-8)Neu5Ac(a2-8)Neu5Ac
Summary of the method: as §1

[10] = biological target: Neu5Ac(a2-8)Neu5Ac(a2-8)Neu5Ac(a2-3)Gal(b1-4)Glc
Summary of the method: as §1

[11] = biological target: Neu5Ac(a2-8)Neu5Ac(a2-8)Neu5Ac(a2-3)[GalNAc(b1-4)]Gal(b1-4)Glc
Summary of the method: as §1

[12] = biological target: Neu5Ac(a2-8)Neu5Ac(a2-8)Neu5Ac(a2-8)Neu5Ac(a2-3)[GalNAc(b1-4)]Gal(b1-4)Glc
Summary of the method: as §1

[13] = biological target: Neu5Ac(b2-6)Gal(b1-4)GlcNAc
Summary of the method: as §1

Neu5Ac(b2-6)GalNAc = biological target: Neu5Ac(b2-6)GalNAc
Summary of the method: as §1

[14] = biological target: Neu5Ac9Ac(a2-3)Gal(b1-3)GlcNAc
Summary of the method: as §1

[15] = biological target: Neu5Ac9Ac(a2-3)Gal(b1-4)GlcNAc
Summary of the method: as §1

[16] = biological target: Neu5Ac9Ac(a2-6)Gal(b1-4)GlcNAc
Summary of the method: as §1

[17] = biological target: Neu5Gc(a2-3)Gal(b1-3)GlcNAc
Summary of the method: as §1

[18] = biological target: Neu5Gc(a2-3)Gal(b1-3)[Fuc(a1-4)]GlcNAc
Summary of the method: as §1

Neu5Gc(a2-3)Gal(b1-4)Glc = biological target: Neu5Gc(a2-3)Gal(b1-4)Glc
Summary of the method: as §1

[19] = biological target: Neu5Gc(a2-3)Gal(b1-4)GlcNAc
Summary of the method: as §1

[20] = biological target: Neu5Gc(a2-3)Gal(b1-4)[Fuc(a1-3)]GlcNAc
Summary of the method: as §1

[21] = biological target: Neu5Gc(a2-6)Gal(b1-4)GlcNAc
Summary of the method: as §1

Neu5Gc(a2-6)GalNAc = biological target: Neu5Gc(a2-6)GalNAc
Summary of the method: as §1

[22] = biological target: Neu5Gc(b2-6)Gal(b1-4)GlcNAc
Summary of the method: as §1

B1: pullulanase (Streptococcus pyogenes), Q8KLP1 (protein)
chain: MKKKVNQGSKRYQYLLKKWGIGFVIAATGTVMLGCIPSILTHQVAAKTIVGLARDEAQQGDGNAKSGDGFQSSSKEAKPVLDSSSANPASIAEHHLRMHFKTLPAGESLGSLGLWVWGDVDQPSKDWPNGAITMTKAKKDDYGYYLDVPLAAKHRQQVSYLINNKAGENLSKDQHIPLLTPKMNEVWIDENYHAHAYRPLKKGYLRINYHNQSGHYDNLAVWTFKDVKTPTTDWPNGLDLSHKGPYGAYVDVPLKEGANEIGFLILDKSKTGDAIKVQPKDYLFKELDNHTQVFVKDTDPKVYNNPYYIDQVSLKGAEQTTPNEIKAIFTTLDGLDEDAVKQNIKITDKAGKTVAIDELTLDKDKSVMTLKGDFKAQGAVYTVTFGEVSQVARQSWQLKDKLYAYDGELGATLAKDGSVDLALWSPSADSVKVVVYDKQDQTKVVGQADLTKSDKGVWRAHLTSDSVKGISDYTGYYYLYEITRGQEKVMVLDPYAKSLAAWNDATATDDIKTAKAAFIDPSKLGPTGLDFAKINNFKKREDAIIYEAHVRDFTSDKALEGKLTHPFGTFSAFVEQLDYLKDLGVTHVQLLPVLSYFYANELDKTRSTAYTSSDNNYNWGYDPQHYFALSGMYSANPNDPALRIAELKNLVNEIHKRGMGVIFDVVYNHTARTYLFEDLEPNYYHFMNADGTARESFGGGRLGTTHAMSRRILVDSITYLTREFKVDGFRFDMMGDHDAAAIEQAFKAAKAINPNTIMIGEGWRTYQGDEGKKEIAADQDWMKATNTVGVFSDDIRNTLKSGFPNEGTAAFITGGAKNLEGLFKTIKAQPSNFEADAPGDVVQYIAAHDNLTLHDVIAKSINKDPKVAEEEIHKRIRLGNTMILTAQGTAFIHSGQEYGRTKQLLNPDYKTKVSDDKVPNKATLIDAVAQYPYFIHDSYDSSDAVNHFDWAKATDSIAHPISNQTKAYTQGLIALRRSTDAFTKATKAEVDRDVTLITQAGQDGIQQEDLIMGYQTVASNGDRYAVFVNADNKTRKVVLPQAYRYLLGAQVLADAEQVGVTAIAKPKGVQFTKEGLTIDGLTALVLKVSSKTANPSQQKSQTDNHQTKTPDGSKDLDKSLMTRPKRAKTNQKLPKTGEAPSKGLLAAGVALLLLAISLLMKRQKD
glycan array binding signal (z-score) [1]: -0.473 | glycan array binding signal (z-score) [2]: -1.16 | glycan array binding signal (z-score) (Neu5Ac(a2-6)GalNAc): -1.58 | glycan array binding signal (z-score) [3]: 0.245 | glycan array binding signal (z-score) [4]: -0.594 | glycan array binding signal (z-score) [5]: 0.142 | glycan array binding signal (z-score) (Neu5Ac(a2-8)Neu5Ac): -0.894 | glycan array binding signal (z-score) [6]: 0.291 | glycan array binding signal (z-score) [7]: -1.06 | glycan array binding signal (z-score) [8]: -0.945 | glycan array binding signal (z-score) [9]: -0.738 | glycan array binding signal (z-score) [10]: -0.462 | glycan array binding signal (z-score) [11]: -0.523 | glycan array binding signal (z-score) [12]: 0.92 | glycan array binding signal (z-score) [13]: -0.587 | glycan array binding signal (z-score) (Neu5Ac(b2-6)GalNAc): 1.95 | glycan array binding signal (z-score) [14]: -0.089 | glycan array binding signal (z-score) [15]: -0.987 | glycan array binding signal (z-score) [16]: -0.117 | glycan array binding signal (z-score) [17]: 1.28 | glycan array binding signal (z-score) [18]: -1.31 | glycan array binding signal (z-score) (Neu5Gc(a2-3)Gal(b1-4)Glc): -0.236 | glycan array binding signal (z-score) [19]: -1.28 | glycan array binding signal (z-score) [20]: 0.149 | glycan array binding signal (z-score) [21]: 0.21 | glycan array binding signal (z-score) (Neu5Gc(a2-6)GalNAc): 0.492 | glycan array binding signal (z-score) [22]: -0.183

Reference: the supplement of paper PMC8728848
